No constants are given. Whether binding was seen depends on the method and setting. Binding seen in cells or lysates may run through a third protein. Binding can be weak; no strength is given. Sequences can lack the tags named with a protein.
Molecular target: DsRED-fused ATG10S (human)
Assay: co-IP; HepG2 cells co-transfected with egfp-fused il28a and DsRED-fused atg10s plasmids; RIPA lysate; immunoprecipitation with anti-RFP antibody, protein A/G agarose beads, 4 °C, Western blot

B1: EGFP-fused IL28A (protein, UniProt Q8IZJ0 26-200)
chain: VPVARLHGALPDARGCHIAQFKSLSPQELQAFKRAKDALEESLLLKDCRCHSRLFPRTWDLRQLQVRERPMALEAELALTLKVLEATADTDPALVDVLDQPLHTLHHILSQFRACIQPQPTAGPRTRGRLHHWLYRLQEAPKKESPGCLEASVTFNLFRLLTRDLNCVASGDLCV
B1 was tested, and the binding was “binds”.
